Source: the supplement of paper PMC12067093, “Discovery and optimisation of a covalent ligand for TRIM25 and its application to targeted protein ubiquitination” (Chemical Science, 2025)
This is one part of the list.

The chains behind the UniProt entries cited, without tags or fusion partners. Where a name states a change or a piece, a line headed by the entry shows the natural chain unless it says otherwise.
UniProt Q86W92: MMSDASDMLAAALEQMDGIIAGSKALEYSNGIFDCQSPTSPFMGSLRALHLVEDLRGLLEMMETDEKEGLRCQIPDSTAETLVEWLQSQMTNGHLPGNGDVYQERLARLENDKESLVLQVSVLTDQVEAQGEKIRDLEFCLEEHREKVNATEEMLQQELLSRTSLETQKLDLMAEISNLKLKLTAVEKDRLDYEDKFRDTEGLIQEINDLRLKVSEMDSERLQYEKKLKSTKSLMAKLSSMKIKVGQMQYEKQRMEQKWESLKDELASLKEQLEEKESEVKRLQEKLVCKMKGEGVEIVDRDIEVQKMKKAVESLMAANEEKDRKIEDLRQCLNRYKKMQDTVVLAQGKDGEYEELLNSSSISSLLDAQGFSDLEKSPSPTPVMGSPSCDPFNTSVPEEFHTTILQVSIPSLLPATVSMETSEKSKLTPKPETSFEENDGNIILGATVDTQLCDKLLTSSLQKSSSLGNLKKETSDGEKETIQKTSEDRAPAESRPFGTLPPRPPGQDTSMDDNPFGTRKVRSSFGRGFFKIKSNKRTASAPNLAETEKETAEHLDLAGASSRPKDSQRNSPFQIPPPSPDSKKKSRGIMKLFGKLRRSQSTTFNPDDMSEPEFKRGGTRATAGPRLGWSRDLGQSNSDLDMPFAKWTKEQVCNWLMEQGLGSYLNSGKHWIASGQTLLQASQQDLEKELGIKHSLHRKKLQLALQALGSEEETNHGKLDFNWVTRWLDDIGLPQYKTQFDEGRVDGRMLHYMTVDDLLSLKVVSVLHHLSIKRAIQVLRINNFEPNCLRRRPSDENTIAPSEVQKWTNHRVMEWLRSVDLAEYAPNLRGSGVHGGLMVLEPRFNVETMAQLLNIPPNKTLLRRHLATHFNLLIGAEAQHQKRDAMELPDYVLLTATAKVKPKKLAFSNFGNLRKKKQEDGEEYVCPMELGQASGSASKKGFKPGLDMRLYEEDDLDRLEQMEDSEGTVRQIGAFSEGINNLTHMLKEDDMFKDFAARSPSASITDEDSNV
UniProt Q99575: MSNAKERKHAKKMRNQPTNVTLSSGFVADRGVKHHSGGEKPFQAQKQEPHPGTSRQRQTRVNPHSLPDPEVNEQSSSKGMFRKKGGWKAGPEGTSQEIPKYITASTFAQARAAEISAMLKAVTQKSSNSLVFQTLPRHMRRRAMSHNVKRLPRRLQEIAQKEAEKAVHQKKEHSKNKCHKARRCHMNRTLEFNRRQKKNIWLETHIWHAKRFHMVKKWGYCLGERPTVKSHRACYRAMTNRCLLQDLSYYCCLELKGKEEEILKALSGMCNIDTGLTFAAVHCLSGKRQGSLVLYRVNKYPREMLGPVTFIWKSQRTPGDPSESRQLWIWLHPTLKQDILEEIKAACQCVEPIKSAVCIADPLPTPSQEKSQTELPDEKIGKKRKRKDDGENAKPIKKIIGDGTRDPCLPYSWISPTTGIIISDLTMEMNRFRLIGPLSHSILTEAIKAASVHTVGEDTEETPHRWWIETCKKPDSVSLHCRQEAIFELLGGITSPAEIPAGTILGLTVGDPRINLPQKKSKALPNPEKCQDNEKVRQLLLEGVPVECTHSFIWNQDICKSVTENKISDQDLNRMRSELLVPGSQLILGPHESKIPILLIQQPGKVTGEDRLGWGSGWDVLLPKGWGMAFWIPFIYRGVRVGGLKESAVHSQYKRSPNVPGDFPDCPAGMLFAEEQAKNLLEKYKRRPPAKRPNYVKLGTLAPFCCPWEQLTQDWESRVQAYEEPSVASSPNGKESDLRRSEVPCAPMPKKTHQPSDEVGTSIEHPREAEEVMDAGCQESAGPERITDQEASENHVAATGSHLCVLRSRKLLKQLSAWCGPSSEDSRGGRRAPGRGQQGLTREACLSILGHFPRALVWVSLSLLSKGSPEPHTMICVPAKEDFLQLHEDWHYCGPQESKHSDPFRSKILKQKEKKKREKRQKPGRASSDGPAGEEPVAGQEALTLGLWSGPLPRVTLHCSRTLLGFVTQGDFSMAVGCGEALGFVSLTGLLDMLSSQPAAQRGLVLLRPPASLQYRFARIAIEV
UniProt P28340: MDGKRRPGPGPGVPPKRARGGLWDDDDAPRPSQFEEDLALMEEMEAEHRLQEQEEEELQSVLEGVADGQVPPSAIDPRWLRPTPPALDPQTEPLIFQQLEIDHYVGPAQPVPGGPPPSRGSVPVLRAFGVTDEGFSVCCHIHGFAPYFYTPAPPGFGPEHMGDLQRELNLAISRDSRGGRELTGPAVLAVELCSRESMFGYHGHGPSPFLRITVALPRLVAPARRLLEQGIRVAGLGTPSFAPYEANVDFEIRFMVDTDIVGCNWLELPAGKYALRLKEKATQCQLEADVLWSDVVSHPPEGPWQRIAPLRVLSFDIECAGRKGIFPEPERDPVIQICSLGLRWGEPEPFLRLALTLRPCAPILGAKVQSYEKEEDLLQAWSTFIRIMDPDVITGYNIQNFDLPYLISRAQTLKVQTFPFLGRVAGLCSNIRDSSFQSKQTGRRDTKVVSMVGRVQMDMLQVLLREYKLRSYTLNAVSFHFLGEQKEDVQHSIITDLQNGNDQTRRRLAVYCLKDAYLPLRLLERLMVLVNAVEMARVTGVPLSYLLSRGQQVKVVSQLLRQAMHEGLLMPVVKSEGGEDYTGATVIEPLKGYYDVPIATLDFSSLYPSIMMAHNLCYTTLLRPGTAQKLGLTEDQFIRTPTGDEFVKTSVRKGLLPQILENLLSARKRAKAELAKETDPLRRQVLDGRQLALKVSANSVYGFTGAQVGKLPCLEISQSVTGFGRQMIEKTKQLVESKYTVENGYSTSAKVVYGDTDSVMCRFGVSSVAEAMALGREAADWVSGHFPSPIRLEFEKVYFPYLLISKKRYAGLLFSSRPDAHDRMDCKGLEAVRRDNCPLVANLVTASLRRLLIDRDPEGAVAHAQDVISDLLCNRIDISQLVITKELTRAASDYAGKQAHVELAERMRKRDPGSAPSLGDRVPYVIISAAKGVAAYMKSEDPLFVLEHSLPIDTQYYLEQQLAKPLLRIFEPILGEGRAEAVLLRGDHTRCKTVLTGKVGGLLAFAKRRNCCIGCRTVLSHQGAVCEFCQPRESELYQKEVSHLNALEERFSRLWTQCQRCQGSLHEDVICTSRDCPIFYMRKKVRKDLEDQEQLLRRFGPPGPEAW
UniProt Q9BUI4: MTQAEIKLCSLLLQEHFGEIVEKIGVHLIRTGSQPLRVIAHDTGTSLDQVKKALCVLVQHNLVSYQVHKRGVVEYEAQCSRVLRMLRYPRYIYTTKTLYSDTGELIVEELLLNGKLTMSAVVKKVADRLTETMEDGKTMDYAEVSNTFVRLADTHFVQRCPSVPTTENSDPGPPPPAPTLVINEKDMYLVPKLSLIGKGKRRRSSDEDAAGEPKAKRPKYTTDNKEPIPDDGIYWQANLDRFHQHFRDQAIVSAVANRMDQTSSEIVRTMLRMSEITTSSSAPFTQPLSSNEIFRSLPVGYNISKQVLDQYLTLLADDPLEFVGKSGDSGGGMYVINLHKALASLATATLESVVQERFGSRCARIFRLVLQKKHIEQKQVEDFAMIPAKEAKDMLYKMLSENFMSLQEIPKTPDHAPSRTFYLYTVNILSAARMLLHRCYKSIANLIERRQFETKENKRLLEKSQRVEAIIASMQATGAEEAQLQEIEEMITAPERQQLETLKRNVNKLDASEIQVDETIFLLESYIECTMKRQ
UniProt Q06203, whole entry, looked up: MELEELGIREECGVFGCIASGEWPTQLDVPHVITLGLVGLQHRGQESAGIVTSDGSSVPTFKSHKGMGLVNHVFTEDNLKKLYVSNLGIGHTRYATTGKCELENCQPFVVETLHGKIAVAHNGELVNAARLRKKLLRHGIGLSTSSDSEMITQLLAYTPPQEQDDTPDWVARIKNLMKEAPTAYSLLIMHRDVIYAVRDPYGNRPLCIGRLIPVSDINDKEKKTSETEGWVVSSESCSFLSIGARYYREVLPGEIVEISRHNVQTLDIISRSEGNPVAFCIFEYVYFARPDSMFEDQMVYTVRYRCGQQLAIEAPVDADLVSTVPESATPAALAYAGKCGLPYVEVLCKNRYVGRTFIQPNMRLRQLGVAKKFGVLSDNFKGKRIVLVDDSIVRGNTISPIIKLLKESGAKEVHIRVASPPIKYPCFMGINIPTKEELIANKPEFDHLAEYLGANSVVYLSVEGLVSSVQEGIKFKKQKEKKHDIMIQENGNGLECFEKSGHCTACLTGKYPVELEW
UniProt P30405: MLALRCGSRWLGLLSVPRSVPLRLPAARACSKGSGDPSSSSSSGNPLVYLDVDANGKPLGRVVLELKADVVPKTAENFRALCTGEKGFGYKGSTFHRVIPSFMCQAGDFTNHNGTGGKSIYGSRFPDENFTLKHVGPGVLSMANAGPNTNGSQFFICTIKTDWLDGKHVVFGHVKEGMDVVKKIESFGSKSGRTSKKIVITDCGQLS
UniProt Q13427: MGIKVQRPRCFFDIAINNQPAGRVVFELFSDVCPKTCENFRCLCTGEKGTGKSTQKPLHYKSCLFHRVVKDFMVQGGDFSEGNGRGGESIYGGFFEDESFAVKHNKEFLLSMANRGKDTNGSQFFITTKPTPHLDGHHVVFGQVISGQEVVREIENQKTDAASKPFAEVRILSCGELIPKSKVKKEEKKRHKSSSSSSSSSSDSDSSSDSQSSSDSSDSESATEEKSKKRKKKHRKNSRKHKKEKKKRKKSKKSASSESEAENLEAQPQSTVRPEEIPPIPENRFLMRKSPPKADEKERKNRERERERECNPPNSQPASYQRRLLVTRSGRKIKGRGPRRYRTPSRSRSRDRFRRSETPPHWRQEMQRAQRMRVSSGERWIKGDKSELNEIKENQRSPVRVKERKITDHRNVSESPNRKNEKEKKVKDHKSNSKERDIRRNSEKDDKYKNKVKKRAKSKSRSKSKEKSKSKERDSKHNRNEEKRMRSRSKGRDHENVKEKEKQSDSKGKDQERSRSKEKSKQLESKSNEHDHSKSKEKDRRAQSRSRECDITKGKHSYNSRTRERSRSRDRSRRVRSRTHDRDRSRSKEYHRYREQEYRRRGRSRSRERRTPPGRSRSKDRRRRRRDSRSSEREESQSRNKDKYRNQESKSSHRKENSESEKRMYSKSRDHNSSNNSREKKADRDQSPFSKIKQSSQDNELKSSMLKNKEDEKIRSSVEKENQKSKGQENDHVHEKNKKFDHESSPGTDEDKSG
UniProt Q15054: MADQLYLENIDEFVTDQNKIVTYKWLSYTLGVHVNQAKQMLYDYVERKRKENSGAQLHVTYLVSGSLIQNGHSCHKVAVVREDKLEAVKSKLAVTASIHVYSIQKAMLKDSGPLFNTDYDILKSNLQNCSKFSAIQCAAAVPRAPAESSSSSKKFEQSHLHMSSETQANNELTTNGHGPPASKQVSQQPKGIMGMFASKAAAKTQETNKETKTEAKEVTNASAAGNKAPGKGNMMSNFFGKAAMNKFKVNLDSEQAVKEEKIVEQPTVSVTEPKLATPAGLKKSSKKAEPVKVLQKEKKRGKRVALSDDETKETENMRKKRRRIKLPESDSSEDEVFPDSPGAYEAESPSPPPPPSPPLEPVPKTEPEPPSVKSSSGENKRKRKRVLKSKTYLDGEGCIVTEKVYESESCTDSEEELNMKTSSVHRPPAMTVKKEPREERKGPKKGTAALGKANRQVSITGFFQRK
UniProt Q08752, whole entry, looked up: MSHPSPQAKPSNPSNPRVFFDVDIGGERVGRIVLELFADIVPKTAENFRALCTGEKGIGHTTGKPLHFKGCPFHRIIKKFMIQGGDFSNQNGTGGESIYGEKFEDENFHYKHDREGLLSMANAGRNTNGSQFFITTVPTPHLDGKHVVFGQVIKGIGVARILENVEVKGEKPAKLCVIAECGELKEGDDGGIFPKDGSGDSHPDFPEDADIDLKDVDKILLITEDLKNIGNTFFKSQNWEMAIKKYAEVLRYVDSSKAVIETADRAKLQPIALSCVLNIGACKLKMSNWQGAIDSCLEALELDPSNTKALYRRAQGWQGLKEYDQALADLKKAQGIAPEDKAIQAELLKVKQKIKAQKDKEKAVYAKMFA
UniProt Q9H2U2: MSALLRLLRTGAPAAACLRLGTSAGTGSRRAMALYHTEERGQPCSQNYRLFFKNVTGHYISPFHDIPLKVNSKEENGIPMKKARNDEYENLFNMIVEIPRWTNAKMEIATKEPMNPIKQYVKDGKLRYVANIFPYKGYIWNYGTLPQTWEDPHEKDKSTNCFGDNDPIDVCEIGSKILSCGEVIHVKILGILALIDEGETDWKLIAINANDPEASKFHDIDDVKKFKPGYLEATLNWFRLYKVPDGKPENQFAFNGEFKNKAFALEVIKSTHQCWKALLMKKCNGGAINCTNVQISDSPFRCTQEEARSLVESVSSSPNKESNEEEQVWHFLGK
UniProt P62937, whole entry, looked up: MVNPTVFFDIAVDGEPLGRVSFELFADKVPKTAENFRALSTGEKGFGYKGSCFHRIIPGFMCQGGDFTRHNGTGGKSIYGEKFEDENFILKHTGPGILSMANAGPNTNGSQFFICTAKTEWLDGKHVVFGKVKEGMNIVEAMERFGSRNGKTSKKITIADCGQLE

Compound: Cc1cc(ccc1-c1ccccc1)C(=O)N1CCCN(CC1)C(=O)CCl [compound 10]
Assay: probe-labelled cysteine peptide fold change vs DMSO (competition) (log2 fold change); higher = less target engagement (more negative = stronger competition)
Conditions: 10 µM; THP-1; incubation time: 4 h
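Also: competitive profiling in live THP-1 cells: cysteine peptides tagged with an iodoacetamide desthiobiotin (IA-DTB) probe, intensity after compound treatment relative to DMSO-treated cells.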

Going from “POR_P16435_445_HILAILQDCPSLRPPIDHLCELLPR (UniProt P16435)” to “POR_P16435_434+445_HILAILQDCPSLRPPIDHLCELLPR (UniProt P16435)”, the “probe-labelled cysteine peptide fold change” value rises from -0.0429 to -0.0234.

Going from “PPFIBP1_Q86W92_140_DLEFCLEEHREK (UniProt Q86W92)” to “POP1_Q99575_777_EAEEVMDAGCQESAGPER (UniProt Q99575)”, the “probe-labelled cysteine peptide fold change” value rises from -0.00273 to 0.013.

Going from “POLD1_P28340_338_KGIFPEPERDPVIQICSLGLR (UniProt P28340)” to “POLR3C_Q9BUI4_9_LCSLLLQEHFGEIVEK (UniProt Q9BUI4)”, the “probe-labelled cysteine peptide fold change” value rises from 0.0265 to 0.163.

First: POLD1_P28340_319_VLSFDIECAGRK (UniProt P28340)
Second: POLR1B_Q9H9Y6_214_GPGYTQYGVSMHCVR (UniProt Q9H9Y6)
The “probe-labelled cysteine peptide fold change” value of the first is lower: -0.084 for the first, 0.157 for the second.

Compared with “POLR1A_O95602_582_LHYANCK (UniProt O95602)”, “PON2_Q15165_283_VLELDTLVDNLSIDPSSGDIWVGCHPNGQK (UniProt Q15165)” is higher in “probe-labelled cysteine peptide fold change” value: 0.0596 for the first, 0.139 for the second.

Compared with “PPAT_Q06203_496_HDIMIQENGNGLECFEK (UniProt Q06203)”, “PPIF_P30405_203_KIVITDCGQLS (UniProt P30405)” is higher in “probe-labelled cysteine peptide fold change” value: -0.381 for the first, -0.114 for the second.

First: PPIG_Q13427_63_SCLFHR (UniProt Q13427)
Second: POGZ_Q7Z3K3_986_VVLFALCCNTEQAAEHFR (UniProt Q7Z3K3)
The “probe-labelled cysteine peptide fold change” value of the first is higher: 0.0394 for the first, -0.0541 for the second.

Going from “POP1_Q99575_283_ALSGMCNIDTGLTFAAVHCLSGK (UniProt Q99575)” to “POLD3_Q15054_398_TYLDGEGCIVTEK (UniProt Q15054)”, the “probe-labelled cysteine peptide fold change” value rises from -0.125 to -0.0882.

First: POLR2A_P24928_109_CVCFFCSK (UniProt P24928)
Second: POLR2B_P30876_1093_DCQIAHGAAQFLR (UniProt P30876)
The “probe-labelled cysteine peptide fold change” value of the first is lower: -0.812 for the first, -0.149 for the second.

First: PPID_Q08752_181_LCVIAECGELK (UniProt Q08752)
Second: PPA2_Q9H2U2_180_ILSCGEVIHVK (UniProt Q9H2U2)
The “probe-labelled cysteine peptide fold change” value of the first is lower: -0.357 for the first, -0.106 for the second.

Same assay, conditions: 50 µM; THP-1; incubation time: 4 h

First: POLR2A_P24928_1050_STLCSR (UniProt P24928)
Second: POLR2B_P30876_622_ICRPLLIVEK (UniProt P30876)
The “probe-labelled cysteine peptide fold change” value of the first is lower: -0.0587 for the first, -0.00415 for the second.

Going from “POLR2B_P30876_892_RDCSTFLR (UniProt P30876)” to “POLDIP3_Q9BY77_338_CLDGQPMK (UniProt Q9BY77)”, the “probe-labelled cysteine peptide fold change” value falls from 0.00776 to -0.204.

Going from “PPAT_Q06203_503_SGHCTACLTGK (UniProt Q06203)” to “POLR3E_Q9NVU0_553_AAGTDSFNGHPPQGCASTPVAR (UniProt Q9NVU0)”, the “probe-labelled cysteine peptide fold change” value falls from -0.199 to -0.388.

First: POLR2I_P36954_52_NCDYQQEADNSCIYVNK (UniProt P36954)
Second: POLD1_P28340_360_LALTLRPCAPILGAK (UniProt P28340)
The “probe-labelled cysteine peptide fold change” value of the first is higher: -0.256 for the first, -0.273 for the second.

Compared with “PPIA_P62937_52_GFGYKGSCFHR (UniProt P62937)”, “POLR2H_P52434_30_LHCESESFK (UniProt P52434)” is higher in “probe-labelled cysteine peptide fold change” value: 0.0104 for the first, 0.177 for the second.

Going from “POLR3B_Q9NW08_1054_LGEMERDCLIGYGASMLLLER (UniProt Q9NW08)” to “POLA1_P09884_497_GPCWLEVK (UniProt P09884)”, the “probe-labelled cysteine peptide fold change” value rises from -0.0847 to 0.0533.

Compared with “POLR2A_P24928_602_QIFSLIIPGHINCIR (UniProt P24928)”, “POLD2_P49005_438_IIRGPEDQTVLLVTVPDFSATQTACLVNLR (UniProt P49005)” is lower in “probe-labelled cysteine peptide fold change” value: -0.0818 for the first, -0.0872 for the second.

Compared with “POLM_Q9NP87_222_VVQELLEHGVCEEVER (UniProt Q9NP87)”, “POP1_Q99575_481_KPDSVSLHCR (UniProt Q99575)” is lower in “probe-labelled cysteine peptide fold change” value: 0.0162 for the first, -0.0829 for the second.

First: POLR1D_P0DPB6_68_NPEVEFCGYTTTHPSESK (UniProt P0DPB6)
Second: POR_P16435_445_HILAILQDCPSLRPPIDHLCELLPR (UniProt P16435)
The “probe-labelled cysteine peptide fold change” value of the first is lower: -0.0111 for the first, 0.0829 for the second.

Compared with “POR_P16435_434+445_HILAILQDCPSLRPPIDHLCELLPR (UniProt P16435)”, “PPFIBP1_Q86W92_140_DLEFCLEEHREK (UniProt Q86W92)” is lower in “probe-labelled cysteine peptide fold change” value: 0.446 for the first, -0.000387 for the second.

Compared with “POP1_Q99575_777_EAEEVMDAGCQESAGPER (UniProt Q99575)”, “POLD1_P28340_338_KGIFPEPERDPVIQICSLGLR (UniProt P28340)” is lower in “probe-labelled cysteine peptide fold change” value: -0.0568 for the first, -0.624 for the second.

First: POLR3C_Q9BUI4_9_LCSLLLQEHFGEIVEK (UniProt Q9BUI4)
Second: POLD1_P28340_319_VLSFDIECAGRK (UniProt P28340)
The “probe-labelled cysteine peptide fold change” value of the first is higher: -0.058 for the first, -0.546 for the second.

Compared with “POLR1B_Q9H9Y6_214_GPGYTQYGVSMHCVR (UniProt Q9H9Y6)”, “POLR1A_O95602_582_LHYANCK (UniProt O95602)” is lower in “probe-labelled cysteine peptide fold change” value: 0.246 for the first, 0.0131 for the second.

First: PON2_Q15165_283_VLELDTLVDNLSIDPSSGDIWVGCHPNGQK (UniProt Q15165)
Second: PPAT_Q06203_496_HDIMIQENGNGLECFEK (UniProt Q06203)
The “probe-labelled cysteine peptide fold change” value of the first is higher: 0.16 for the first, 0.0276 for the second.

Compared with “PPIF_P30405_203_KIVITDCGQLS (UniProt P30405)”, PPIG_Q13427_63_SCLFHR (UniProt Q13427) is lower in “probe-labelled cysteine peptide fold change” value: -0.218 for the first, -0.418 for the second.

First: POGZ_Q7Z3K3_986_VVLFALCCNTEQAAEHFR (UniProt Q7Z3K3)
Second: POP1_Q99575_283_ALSGMCNIDTGLTFAAVHCLSGK (UniProt Q99575)
The “probe-labelled cysteine peptide fold change” value of the first is higher: -0.0339 for the first, -0.377 for the second.

Going from “POLD3_Q15054_398_TYLDGEGCIVTEK (UniProt Q15054)” to “POLR2A_P24928_109_CVCFFCSK (UniProt P24928)”, the “probe-labelled cysteine peptide fold change” value falls from -0.0456 to -0.13.

Compared with “POLR2B_P30876_1093_DCQIAHGAAQFLR (UniProt P30876)”, “PPID_Q08752_181_LCVIAECGELK (UniProt Q08752)” is higher in “probe-labelled cysteine peptide fold change” value: -0.303 for the first, -0.1 for the second.

“PPA2_Q9H2U2_180_ILSCGEVIHVK (UniProt Q9H2U2)” was tested, and the “probe-labelled cysteine peptide fold change” value was -0.00292.
